The test system of series [1] is mitochondrial ribosomal subunits. Also on record: dose or concentration left out as unconfirmed. Conditions: […] μM, 1 h, 37 °C, HEK-293. Here is the method:
incubated in a thermoshaker (600 rpm, 16 h, 37 °C). The digest was stopped by adding 10 μL formic
acid (FA) and vortexing followed by centrifugation (12,000 ×g, 3 min, room temperature). 50 mg
SepPak C18 columns (Waters, Milford, USA, Cat# WAT054960) were equilibrated by gravity flow two
times with 1 mL acetonitrile and three times with 1 mL aqueous 0.1% trifluoroacetic acid (TFA) solution.
Subsequently, the samples were loaded by gravity flow, washed three times with 1 mL aqueous 0.1%
TFA solution and once with 0.5 mL aqueous 0.5% formic acid (F A) solution. Elution of peptides into
new 2.0 mL Protein LoBind Eppendorf tubes was performed by two times addition of 250 μL elution
buffer (80% acetonitrile, 0.5% FA) by gravity flow followed by 250 μL elution buffer by vacuum flow
until all liquid was eluted from the column. The eluates were lyophilized. Before MS measurement the
(brief centrifugation after each step).
Thermal protein profiling (TPP)
The experiment was performed similarly to TPP-TR experiments described by Franken et al. with minor
modifications.5 HEK293 cells were grown in 8 T175 flasks to approx. 80-90% confluency. Per replicate
volume of 0.1 N HCl as vehicle control. Per condition two replicates were used, leading to a total of 8
T175 flasks. The cells were washed with PBS, detached with accutase, the two flask per replicate […]

The conditions of series [2]: cited from earlier work.

Structures are written as SMILES.

Here are results for one compound from article PMC12036814 (Angewandte Chemie (International Ed. in English), 2025).

As for `O=C(O)c1cn(C2CC2)c2cc(N3CCNCC3)c(F)cc2c1=O` [Ciprofloxacin], the “thermal stability of mitochondrial ribosomal subunits” value in series [1] is given as “destabilized”. In series [2] (concentration resembling peak plasma levels), the peak plasma levels is roughly 75 µM. Further, the regular plasma levels in series [2] (concentration resembling regular plasma levels) was roughly 7.5 µM.
